Values quoted from earlier work in US20230304018A1, “COMPOSITIONS AND METHODS FOR ENHANCING WEIGHT LOSS” (The Children's Hospital of Philadelphia, priority 2017, published 2023).
At least one compound was matched to its structure with a doubt left.

System: PI3K isoforms
Conditions: class I PI3K isoforms versus mTOR; cited from earlier work

CC(C)n1nc(-c2ccc3oc(N)nc3c2)c2c(N)ncnc21 [Sapanisertib]
less potent to class I PI3K isoforms: > 200 fold
